In article PMC6385813, “Macrocyclisation of small peptides enabled by oxetane incorporation” (Chemical Science, 2019):

Experiment: solution-state NMR NOE conformational study
Assay type: physicochemical
Settings: d6-DMSO, 30 mM, 298 K, 700 MHz; mixing times 250–800 ms; between Gly3 and Tyr5

Row | Substance | medium-range NOEs (turn formation)
1 | H-LAGAY-OMe [LAGAY-OMe] | only observed in peptide LAGOxAY-OMe
2 | LAGOxAY-OMe [oxetane modified variant of LAGAY methyl ester] | clearly observed
